These results are taken from patent publication EP4703375A1.

Sequences of proteins named here, by UniProt entry; tags and fusion partners are left off. A change or cut given only in a name is not applied to a line headed by its entry.
UniProt P15813: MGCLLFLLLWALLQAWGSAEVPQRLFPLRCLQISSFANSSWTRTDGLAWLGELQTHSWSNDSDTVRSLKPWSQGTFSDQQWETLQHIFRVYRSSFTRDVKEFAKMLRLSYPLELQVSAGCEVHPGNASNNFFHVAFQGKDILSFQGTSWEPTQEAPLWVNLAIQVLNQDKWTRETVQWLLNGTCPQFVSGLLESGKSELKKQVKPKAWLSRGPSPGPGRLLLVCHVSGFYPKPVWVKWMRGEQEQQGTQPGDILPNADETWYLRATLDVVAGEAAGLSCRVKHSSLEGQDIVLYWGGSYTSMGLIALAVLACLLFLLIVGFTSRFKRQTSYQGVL

These are yes or no findings as the source states them, for the method shown. Some binding calls cover weakened binding; strength is not graded here.

This test addresses CD1d tetramer loaded with α-GalCer (MBL TS-HCG-1) (UniProt P15813). The test is described as follows: tetramer staining of TCR-knockout NFAT-Luc Jurkat cells transduced with the TCR.

B1: control iTCR (disclosed iNKT TCR) (TCR, V domains shown)
V domain 1: RGNGKNQVEQSPQSLIILEGKNCTLQCNYTVSPFSNLRWYKQDTGRGPVSLTIMTFSENTKSNGRYTATLDADTKQSSLHITASQLSDSASYICVVSDRGSTLGRLYFGRGTQLTVWP
V domain 2: DIYQTPRYLVIGTGKKITLECSQTMGHDKMYWYQQDPGMELHLIHYSYGVNSTEKGDLSSESTVSRIRTEHFPLTLESARPSHTSQYLCASSEGGGLKLAKNIQYFGAGTRLSVLE
With B1, the binding entry is “binds”.
